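Genome-wide siRNA knockdown in TC32 Ewing sarcoma cells, comparing luciferase light from an NR0B1-promoter reporter with a CMV-promoter reporter 48 hours after transfection. Each siRNA was applied at 20 nM. A z-score of the log NR0B1-over-CMV signal, less the median of siRNAs with the same seed; more negative means a stronger specific loss of the NR0B1 reporter.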

The strongest results of the screen are mostly left out here. Sequences are the guide (antisense) strand, without overhang.

strand,target gene,seed-corrected z-score
UAUCGUAUAAUAUGCAAAC,XKR6,-0.294
UGAGUUCACAGGAAGACCC,LINC01116,-1.621
UUCCGUUACCAUGUCCUUC,C14orf142,-1.189
UACAAUUUCGAUUUCAUAG,ZFYVE21,0.5887
UAUGGAACAGGACGGAUUU,LARGE,-0.007197
UAACGGACGUAAUCACGGC,CCL22,-0.1135
UCUGGUCAAAAGCAACGGC,BORCS5,-1.112
AAGAGUAUCCGCAAAAUGU,PQLC1,-0.3393
UGAGUUCAGAUUGACCUUG,EMILIN3,-0.8765
UUCUUGUUGAUUAAAGUUC,KRCC1,0.4743
UCAGCUCCUCGUGUAGCCA,CDC37P1,0.1037
UCAAUGCACAGCAUCGACG,PAPD7,0.05142
AAAGGGUGAGUCAUUGAUG,RTN4R,0.09953
UGUUCAUCAACAUAACUCC,GXYLT1,0.7797
UUCACUUAUUAUUCGAUCC,CEP120,-0.8084
AGCCUAAUAUAUGCUAUGC,CAMK2D,-0.336
AAAGAUAGGAUGGAUGGGC,POM121,1.016
AACAAUAUCAGGAUGAUCC,IPO13,0.6574
UUUCUUCCUACCUACAAUC,FAM160B2,-1.682
UUGACAUUCUGGUUCGAGC,EEF2K,0.0793
UUGCGUUUCAACGUGGUCG,SCN2A,-0.3845
UAAGUACCGAGUUUGUGCC,FRMD7,0.8549
UUGAGUUUCUUGUGGGUAC,BAIAP2L1,0.09177
UACGCUAUGCCCACGAUGC,PCSK6,-0.3278
AGAAGAAUAAAAAGGAGUC,SIAH3,0.9396
UUAACUUCAACAAUAGUCG,HSPA13,0.7864
UUAGGUGCUGUUUCCAUGC,ZNF131,-0.4536
UCUUCCUCUCGCCAUGUGC,FAM212A,-0.3317
UAGGCGACGAAGACCACCA,SLC25A47,-0.4154
UCAUGUAAGUGUAGAAGGC,EVX1,0.8698
ACUUAAAAUGGUAUUGUCU,FRYL,0.8478
AUCCAUAAAAUCCCUGAGG,TBC1D20,0.4461
UAUCUGACAAGCCCUAACU,LINC01465,-0.6253
AUUUAUCUAGCAAAGUUCC,ERVFRD-1,0.3587
AGCUGUGAAAGAGCCCUUC,ADAMTS13,-1.999
UACUUUGGUUCAAAAUUGC,DEFB110,-0.7096
UAUGAAACCAGCAUGGGCA,TKFC,-0.3305
UGAGUAAAUAGUCCACGAC,ARHGAP6,-0.8023
UAAGAAAUCACUUCUCCGA,MGMT,-0.3853
ACACGUACUGUUUAUAGUC,FLOT2,-1.405
UCUUGAAUCGCGCAUAAUC,CCDC84,0.1376

Data taken from PubChem BioAssay AID1159506, deposited by NCATS (2015).